Earlier results, collected in US20250034331A1, “POLYESTER URETHANE BIORESORBABLE ELASTOMERS WITH MICROSTRUCTURES FOR TUNABLE DRUG RELEASE AND TUNABLE DEGRADATION” (SOLESIS, INC., priority 2023, published 2025).

Settings: 25° C.

SMILES: C[C@@H]1C[C@H]2[C@@H]3CCC4=CC(=O)C=C[C@]4(C)[C@@]3(F)[C@@H](O)C[C@]2(C)[C@@]1(O)C(=O)CO [dexamethasone]
- solubility in PBS: around 75 μg/mL
